Assay results published in patent US20220023291A1, “COMPOSITIONS AND METHODS FOR REGULATING INFLAMMATION” (University of Virginia Patent Foundation, priority 2018, published 2022).
For at least one compound, name, drawing or mass did not settle the structure.

System: BMDM
Assay: IL-6 ELISA on supernatant of LPS-stimulated BMDM
Type: cell-based, mouse
Conditions: 1 μg/mL LPS, 6 hours
Method: Tissue culture conditions and Reagents. HEK293 cells, primary lung fibroblasts and BMDM were isolated and maintained as described (41-43). Cells were treated with LPS (Sigma, L4391), 4μ8C (Tocris, 4479), tunicamycin (Tocris, 3516), PD98059 (Medchem Express HY-12028), JSH-23 (Medchem Express, Hy-13982), SP600125 (Medchem Express, HY-12041), cycloheximide (Tocris, 0970), lactacystin (Cayman Chemical, 70980), chloroquine (Fisher, ICN19391925), and STF 083010 (Medchem Express, HY-15845) as described in the text.
ELISA. ELISA for IL-6 and TNFα were performed as previously described (Remick et al., 2002). Antibodies used were: anti-mouse IL-6 MP5-20F3 (Biolegend, 504501) 0.5 μg/mL; biotin anti-mouse IL-6 MP5-32C11 (Biolegend, 504601) 1 μg/mL; anti-mouse TNFα (R&D systems, AF-410-NA) 0.5 μg/mL; biotin anti-mouse TNFα (R&D systems, BAF410) 0.25 μg/mL.
Tissue culture conditions and Reagents. HEK293 mTLR4/MD2/CD14 (Invivogen, 293-mtlr4md2cd14), primary lung fibroblasts, and BMDM were isolated and maintained as described (Zhang et al., 2008; Seluanov et al., 2010). […]

Oc1c2ccccc2c2c3c(cccc13)N=N2 [SP600125]
Difference in LPS-induced IL-6 secretion between WT and S1R KO BMDM (20 μM JSH-23, 20 μM PD98059, 1 μM SP600125, 5 μM 4μ8C): without altering the ability of S1R KO BMDM to produce more IL-6
LPS-induced IL-6 secretion (WT and S1R KO BMDM, 20 μM JSH-23, 20 μM PD98059, 1 μM SP600125): significant decrease in IL-6 production
